We go through three molecules from patent US20260265393A1.

These are yes or no findings as the source states them, for the method shown. A result given as binding can be weak or reduced; the word gives no strength.

B1: 13B3 anti-human CD27 mouse monoclonal antibody (hybridoma clone) (antibody, V domains shown)
VH: QVQLQQSGPEQVKPGASVKISCKTSGYAFSQSWMNWVKQRPGQGLEWIGRIYPGDGDTNYNGIFKGKATLTADKSSSTAYMQLSSLTSLDSAVYFCASMIRTTYVMDHWGQGTSVTVTS
VL: DIVLTQSPATLSVTPGDSVSLSCRASQSVSNSLHWYQQKSHESPRLLIMYTSQSISGIPSRFSGSGSGTDFTLSINSVETEDFGMYFCQQSNSWPLTFGAGTKLELK
B2: 16B1 anti-human CD27 mouse monoclonal antibody (hybridoma clone) (antibody, V domains shown)
VH: B1 VH
VL: B1 VL
B3: 17H8 anti-human CD27 mouse monoclonal antibody (hybridoma clone) (antibody, V domains shown)
VH: EVKLEESGGGLVQPGGSMKLSCVASGFTFSNYWMNWVRQSPEKGLEWVAEIRLKSNNYATYYAESVKGRFTISRDDSKSSVYLQMNSLRGEDTGIYYCTLYDSSYYYAMDYWGQGTSVTVSS
VL: DVVLTQTPLSLPVNIGDQASISCKSTQSLLHSDGFTYLDWYLQKPGQSPQLLIYLVSNRFLGVPDRFSGSGSRTDFTLKISRVEAEDLGVYYCFQSNYLPLTFGGGTKLEI

This assay addresses cynomolgus macaque CD27 recombinant protein (solid-phase) (cynomolgus macaque). Kind of assay: solid-phase binding, hybridoma screening.
Regarding B1, the binding entry is “binds”.

B2: the binding result is on record as “binds”.

Consider B3, for which the binding result was “binds”.
